No constants are given. Whether binding was seen depends on the method and setting. In cells and extracts the contact can be indirect. Tags and fused reporters may be left off the sequences shown.
Target: T1, dynamin2/GTPase-GFP fusion protein (human) (UniProt P50570)
T1 sequence: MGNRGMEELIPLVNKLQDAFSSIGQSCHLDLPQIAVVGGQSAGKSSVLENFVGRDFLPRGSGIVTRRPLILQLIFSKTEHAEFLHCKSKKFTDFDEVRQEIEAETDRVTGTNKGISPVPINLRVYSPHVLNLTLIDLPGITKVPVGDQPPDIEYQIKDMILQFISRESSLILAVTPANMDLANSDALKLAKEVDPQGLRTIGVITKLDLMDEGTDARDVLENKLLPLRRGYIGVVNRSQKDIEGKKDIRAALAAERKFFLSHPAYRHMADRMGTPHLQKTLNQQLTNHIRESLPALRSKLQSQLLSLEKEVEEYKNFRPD
Assay: co-IP; extracts of pEAK Rapid cells co-expressing dynamin2/GTPase-GFP with Kalirin7 or Kalirin12, immunoprecipitated with polyclonal GFP antibody or control immunoglobulin, blotted with Kalirin-spectrin antibody

Kalirin7 (rat)
binding: no binding

Reference: publication PMC2703648
